In article PMC11192940 one finds binding data, which are given here for seven substances.

Protein sequences, listed by entry. Tags and fused reporters are not part of them. Lines headed by an entry give the natural chain unless they say otherwise; changes in a name come on top.
UniProt Q9NZH6: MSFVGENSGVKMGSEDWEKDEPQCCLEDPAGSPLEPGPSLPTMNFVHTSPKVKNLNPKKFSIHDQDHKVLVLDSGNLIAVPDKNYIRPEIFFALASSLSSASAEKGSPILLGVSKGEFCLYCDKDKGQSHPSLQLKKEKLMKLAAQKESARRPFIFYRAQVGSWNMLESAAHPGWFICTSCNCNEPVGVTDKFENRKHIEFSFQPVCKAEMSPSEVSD

Test [1] addresses Rheb, endogenous (human (endogenous in HEK-293T and A549)) (UniProt Q15382). Description: co-IP; whole cell lysates of HEK-293T transfected with or without IL-37d forms incubated with Rheb antibody, then protein A/G; western blot with Flag or indicated antibodies. In general terms: A western blot detects proteins with antibodies after separation by electrophoresis.
Test [2] deals with IL-37d with a 3×Flag at the C-terminal (full-length human IL-37d, pcDNA3.1) (human) (UniProt Q9NZH6). Description: co-IP; lysates of transfected HEK-293T or A549 cells incubated with IgG or IL-37d antibody, then protein A/G; western blot; lysis buffer 1.0% NP-40, 10 mM Tris-HCl pH 7.4, 1 mM EDTA, 150 mM NaCl, 10% glycerol; A549 cells also treated with 10 μM FTI-277 for 16 h; HEK-293T also with or without TSC2 plasmid.

Test [3] has as its target VC155-Rheb (pBiFC-VC155-Rheb), full-length Rheb fused to the C-terminal fragment of Venus (human) (UniProt Q15382). Description: split reporter; HEK-293T transfected with pBiFC-VN173-IL-37d forms and pBiFC-VC155-Rheb (2 μg plasmid); YFP fluorescence by confocal microscopy.

No constants are given. Whether binding was seen depends on the method and setting. In cells and extracts the contact can be indirect. A result given as binding can be weak or reduced; the word gives no strength.

“IL-37d with a 3×Flag at the C-terminal (full-length human IL-37d, pcDNA3.1) (from UniProt Q9NZH6-4)”: the binding result in test [1] is “binds”.

In the case of “IL-37d-N161S with 3×Flag (from UniProt Q9NZH6-4)”, the binding result in test [1] is on record as “binds”.

On to “Myc-Rheb (full-length human Rheb with an N-terminal Myc, pCMV) (from UniProt Q15382 1-184)”, for which the binding result in test [2] is listed as “binds”.

“VN173-IL-37d-A123P (pBiFC-VN173-IL-37d-A123P) (from UniProt Q9NZH6-4)”: the binding result in test [3] is “no binding”.

On to “VN173-IL-37d-C160S (printed as pBiFC-VN173-IL-37d-C160 in the methods) (from UniProt Q9NZH6-4)”, for which, in test [3], the binding result was “no binding”.

As to “VN173-IL-37d-G153D (pBiFC-VN173-IL-37d-G153D) (from UniProt Q9NZH6-4)”, the binding result in test [3] is on record as “no binding”.

Take “VN173-IL-37d-N161S (pBiFC-VN173-IL-37d-N161S) (from UniProt Q9NZH6-4)”: the binding result in test [3] is recorded as “binds”.
